Record: PubChem BioAssay AID1053208 (Peter MacCallum Cancer Centre, 2014)
Screen: 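Synthetic lethal interactions between gene loss and doxorubicin in osteosarcoma cells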 (primary screen). Cell system: mouse osteosarcoma cells, early-passage culture from an engineered mouse model of fibroblastic bone tumour. Reagents: siRNA pool against mouse genes, 40 nM. Timing: about 120 h (48 h before drug, then 72 h with drug). Challenge: doxorubicin 100 nM for 72 h, roughly 30-40% inhibitory dose. Measurement: 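Luminescent ATP signal taken as viability with or without 100 nM doxorubicin for 72 h; mean of two wells set against non-targeting siRNA and turned into robust z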. Scale: viability z-score with doxorubicin and doxorubicin viability vs non-targeting: higher = more viable cells under doxorubicin; viability z-score without drug: higher = more viable cells with knock-down alone; z-score of drug to no-drug ratio: higher = less drug sensitisation by knock-down. Call rule: 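a pool counts as active when its viability z-score with doxorubicin is -2 or below and its z-score without drug lies between -2 and 2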.
In all, the deposit lists about 17,000 reagents; below is a random part of them. Of all reagents, 788 (4.7%) are marked active. 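Calls rest on z-score classes alone; an extra cut-off of viability at most 70% of control was not applied to them.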 Unmarked entries are inactive. Reagent sequences are not shown.

no.	gene	PubChem SID	combined z-score class	viability z-score with doxorubicin	viability z-score without drug	z-score of drug to no-drug ratio	doxorubicin viability vs non-targeting
1	Ube2l6	SID152272528	no change with or without drug	-0.22	0.51	-0.45	0.92
2	Gtf2h1	SID152283241	no change with or without drug	0.67	-0.84	1.46	1
3	Zfp692	SID152318919	no change with or without drug	-0.22	0.34	-0.34	0.92
4	Cyb5a	SID152304232	no change with or without drug	0.56	-1.18	1.57	0.99
5	Prdx1	SID152283599	no change with or without drug	-0.22	0.34	-0.34	0.92
6	Fxyd7	SID152269398	no change with or without drug	0.67	1.85	-0.45	1
7	Wars1	SID152262847	no change with or without drug	0	-0.34	0.34	0.94
8	Trpm5	SID152279215	no change with or without drug	-0.22	0.34	-0.34	0.92
9	Syp	SID152291208	no change with or without drug	-0.45	0.17	-0.45	0.9
10	Troap	SID152295937	no change with or without drug	-0.45	0.51	-0.67	0.9
11	Cdc25c	SID152285005	no change with or without drug	0.22	-0.17	0.45	0.96
12	Slc25a37	SID152322659	no change with or without drug	0.22	-1.18	1.24	0.96
13	Zscan21	SID152293378	no change with or without drug	0.9	1.18	0.22	1.02
14	Or9m1	SID152325478	no change with or without drug	-1.8	-1.35	-0.9	0.78
15	Csf3r	SID152330014	high cell count without drug only	1.57	2.19	0.22	1.08
16	Rimoc1	SID152292894	no change with or without drug	1.57	1.85	0.45	1.08
17	Pnma3	SID152278432	high cell count without drug only	1.8	2.19	0.45	1.1
18	Dguok	SID152319217	no change with or without drug	1.12	0	1.24	1.04
19	Eri3	SID152335386	no change with or without drug	0.34	0.34	0.22	0.97
20	Unc45b	SID152316237	no change with or without drug	-0.56	-0.84	0.11	0.89
21	Tmem179	SID152310759	no change with or without drug	-0.11	-0.51	0.34	0.93
22	Gykl1	SID152324922	no change with or without drug	0.9	1.18	0.22	1.02
23	Strn3	SID152285765	no change with or without drug	0.45	-0.51	1.01	0.98
24	Rnf144a	SID152286931	no change with or without drug	0	0.17	0	0.94
25	Amigo3	SID152308726	no change with or without drug	0	0.34	-0.11	0.94
26	Gngt2	SID152336290	no change with or without drug	-0.9	-0.17	-0.79	0.86
27	Paqr8	SID152331576	no change with or without drug	0	-0.17	0.22	0.94
28	9130221H12Rik	SID152328411	no change with or without drug	0.67	0.84	0.22	1
29	Nfatc3	SID152321872	no change with or without drug	0.67	0.67	0.34	1
30	Rgs19	SID152283438	no change with or without drug	0.34	-1.35	1.46	0.97
31	Akt2	SID152330625	no change with or without drug	-1.12	-1.01	-0.45	0.84
32	Ly6g2	SID152292485	no change with or without drug	0.56	0.84	0.11	0.99
33	S100a6	SID152294591	no change with or without drug	-0.45	0	-0.34	0.9
34	Sncg	SID152260810	no change with or without drug	-0.22	-0.51	0.22	0.92
35	Apoa1	SID152279571	no change with or without drug	-1.57	0.17	-1.69	0.8
36	Ifna11	SID152264605	high cell count with doxorubicin only	2.36	1.85	1.12	1.15
37	Arhgef37	SID152327297	low cell count without drug only	-0.67	-2.19	1.01	0.88
38	Dcaf5	SID152342952	no change with or without drug	0.67	-0.17	0.9	1
39	Cibar1	SID152298014	no change with or without drug	-0.45	-1.18	0.45	0.9
40	Ifit2	SID152271838	no change with or without drug	-0.45	-1.52	0.79	0.9
41	Or6b6	SID152308550	no change with or without drug	-1.91	1.52	-2.7	0.77
42	Or5ar1	SID152281293	low cell count with and without drug	-2.92	-2.53	-1.46	0.68
43	Prl5a1	SID152323715	no change with or without drug	0.22	-0.51	0.67	0.96
44	Olfr899	SID152312864	no change with or without drug	0	1.69	-0.9	0.94
45	Scart2	SID152287972	no change with or without drug	1.01	1.18	0.34	1.03
46	Or51l14	SID152317733	no change with or without drug	0.67	0.84	0.22	1
47	Slc3a1	SID152266450	no change with or without drug	0	0.84	-0.45	0.94
48	Rbm28	SID152331154	no change with or without drug	1.24	-0.51	1.8	1.05
49	Pimreg	SID152331074	no change with or without drug	-0.67	0.84	-1.12	0.88
50	Or10aa1	SID152292972	no change with or without drug	0.9	-0.84	1.69	1.02

5 of these entries in another layout.
Unc45b [SID152316237] — combined z-score class: no change with or without drug; viability z-score with doxorubicin: -0.56; viability z-score without drug: -0.84; z-score of drug to no-drug ratio: 0.11; doxorubicin viability vs non-targeting: 0.89
Tmem179 [SID152310759] — combined z-score class: no change with or without drug; viability z-score with doxorubicin: -0.11; viability z-score without drug: -0.51; z-score of drug to no-drug ratio: 0.34; doxorubicin viability vs non-targeting: 0.93
Gykl1 [SID152324922] — combined z-score class: no change with or without drug; viability z-score with doxorubicin: 0.9; viability z-score without drug: 1.18; z-score of drug to no-drug ratio: 0.22; doxorubicin viability vs non-targeting: 1.02
Strn3 [SID152285765] — combined z-score class: no change with or without drug; viability z-score with doxorubicin: 0.45; viability z-score without drug: -0.51; z-score of drug to no-drug ratio: 1.01; doxorubicin viability vs non-targeting: 0.98
Rnf144a [SID152286931] — combined z-score class: no change with or without drug; viability z-score with doxorubicin: 0; viability z-score without drug: 0.17; z-score of drug to no-drug ratio: 0; doxorubicin viability vs non-targeting: 0.94
